This is one part of the list.
system: T1, CTL2-GFP (C. trachomatis L2/434/Bu, GFP-expressing); set-up: species or system HeLa; Intracellular C. trachomatis growth in HeLa cells, bulk GFP fluorescence relative to DMSO; settings: bulk GFP, single well; 28.5 h, 10 µM; inhibitor
T1 construct: L2/434/Bu, GFP-expressing

Compound	% of control remaining
Nc1ncc(-c2cccc(/C=C/C(=O)O)c2)nc1NCCCO [CBK063887]	116.386%
CS(=O)(=O)N1CC[C@H](c2nc3cc(Cl)ccc3o2)C1 [CBK289370]	110.177%
CN(C)CCCNC(=O)c1cc(-c2ccc(Cl)cc2)[nH]n1 [CBK116564T]	117.365%
O=c1oc2ccc(Cl)cc2n1C1CCN(Cc2ccco2)CC1 [CBK284342]	78.5925%
COc1ccccc1N1CCN(c2nccc3sc(S(=O)(=O)NCc4ccc(C(F)(F)F)c(F)c4)cc23)CC1 [CBK038270C]	106.334%
O=C(NCCN1CCOCC1)C1CCN(Cc2ccccc2O)CC1 [CBK264324]	140.808%
[O-][n+]1c2c([n+]([O-])c3c1CCCC3)CCCCC2 [CBK263586]	100%
CCOC(=O)Cc1csc(SCC(=O)N2CCc3ccccc32)n1 [CBK306190]	135.774%
O=C(NCc1ccncc1)c1nccnc1-c1ccc(COc2ccccc2)cc1 [CBK050836]	124.549%
Cc1ccc(S(=O)(=O)Oc2cccc(C(c3c(C)n[nH]c3O)c3c(C)n[nH]c3O)c2)cc1 [CBK265016]	116.674%
O=C(Nc1ncnc2c1nc(OCc1ccccc1)n2C1CC(O)C(CO)O1)c1ccccc1 (stereo not drawn) [CBK201220]	135.905%
Cc1ccc2nsnc2c1NC(=O)COc1ccc([N+](=O)[O-])cc1 [CBK033705]	125.33%
O=C(CSc1ncnc2ccccc12)N(Cc1ccccc1F)C1CC1 [CBK295610]	122.72%
O=C(Cn1ccc2ccnc(-c3cccs3)c21)N1CCC(O)CC1 [CBK284736]	129.04%
Cc1cc(C)cc(NC(=O)Cn2cnc3c(sc4ccccc43)c2=O)c1 [CBK287807]	122.392%
COC(=O)c1cn(-c2ccc(Cl)cc2)c(=O)c2ccccc12 [CBK116489]	90.6204%
O=C(CNCc1ccc2c(c1)OCO2)NCc1ccc2c(c1)OCO2 [CBK074763]	145.674%
COc1ccc(-c2cc(C(=O)Nc3cccc(C(=O)O)c3)cnc2-c2ccc(F)cc2)cn1 [CBK038064]	114.085%
O=S(=O)(NCC1CCCO1)c1ccc2oc3ccc(S(=O)(=O)NCC4CCCO4)cc3c2c1 (stereo not drawn) [CBK265914]	102.311%
c1cncc(CNc2cccc(OCCOc3nccnc3N3CCNCC3)c2)c1 [CBK200008]	106.843%
N#Cc1c(NC(=O)CSc2ncnc3c2cnn3-c2ccccc2)sc2c1CCCC2 [CBK269478]	133.234%
O=C(Cn1c(C2CCOCC2)cc2cccnc21)N1CCCCCC1 [CBK284674]	54.5925%
Cc1cccc(C(=O)N2CCCCC2CN(C)C)c1 (stereo not drawn) [CBK074171]	138.184%
CCc1cc(CNC(=O)C(c2ccccc2)N2CCC(C)CC2)on1 (stereo not drawn) [CBK281592]	130.415%
Cn1c(-c2ccccc2)c(C(=O)C(N)=O)c2ccccc21 [CBK288465]	110.42%
Cc1cc(CNS(=O)(=O)c2ccc(-c3ccon3)s2)no1 [CBK062276]	90.1748%

5 successive records out of the list so far, for reference:
Compound	% of control remaining
Cc1ccc2nsnc2c1NC(=O)COc1ccc([N+](=O)[O-])cc1 [CBK033705]	125.33%
O=C(CSc1ncnc2ccccc12)N(Cc1ccccc1F)C1CC1 [CBK295610]	122.72%
O=C(Cn1ccc2ccnc(-c3cccs3)c21)N1CCC(O)CC1 [CBK284736]	129.04%
Cc1cc(C)cc(NC(=O)Cn2cnc3c(sc4ccccc43)c2=O)c1 [CBK287807]	122.392%
COC(=O)c1cn(-c2ccc(Cl)cc2)c(=O)c2ccccc12 [CBK116489]	90.6204%

Following part.

Compound	% of control remaining
Nc1cc2cccnc2nc1-c1cccnc1 [CBK067602]	162.351%
CN1CCN(C(=O)c2cccc(NS(=O)(=O)c3cc(Cl)sc3Cl)c2)CC1 [CBK038966]	140.013%
O=S(=O)(Nc1nnn[nH]1)c1ccc(Cl)c(Cl)c1 [CBK062387]	104.974%
Cn1c(C(=O)N2CCc3ccccc32)cc2ccccc21 [CBK200406]	115.29%
Nc1ncc(-c2cccs2)nc1-c1ccc(F)c(Cl)c1 [CBK063990]	78.2464%
COc1cccc(CN2CCC3(C2)c2[nH]c4c(C)cccc4c2CCN3C(C)=O)c1 (stereo not drawn) [CBK039662]	91.2422%
NC(=O)c1ccccc1NC(=O)C1CCC(C(=O)Nc2ccccc2C(N)=O)CC1 (stereo not drawn) [CBK268716]	117.004%
N=c1n(CC(=O)c2ccc(Br)s2)c2ccccc2n1Cc1ccccc1 [CBK262482B]	96.8738%
COc1ccc(NS(=O)(=O)c2cc(C(=O)O)sc2Br)cn1 [CBK297943]	116.135%
O=C(O)CNC(=O)CNC(=O)Cn1c(-c2ccccc2)cc2ccccc21 [CBK286550]	121.663%
COc1ccc2cc(C)c3n[nH]c(=O)n3c2c1 [CBK283765]	130.896%
Nc1nc(OCCOc2ccccc2)cnc1-c1ccc2c(c1)OCO2 [CBK145097]	100%
CC(=O)N(C)Cc1cccc(Nc2ncnc3c2cnn3CCO)c1 [CBK305979]	107.306%
CCc1nc2ccc(C(=O)NCCCN3CCCC3=O)cn2c1N(C)C(=O)COc1ccccc1 [CBK145855]	181.817%
O=C(NCCN1CCCC1)c1ccc2nc[nH]c2c1 [CBK153311]	133.838%
COc1ccc(C(=O)Nc2ccccc2)cc1NC(=O)c1cc(C(F)(F)F)cc(C(F)(F)F)c1 [CBK263465]	131.689%
CCc1nnc(NC(=O)c2cc(OC)c(OC)c(OC)c2)s1 [CBK058342]	121.414%
COc1cccc(-c2ccc(C(=O)NCCNC(C)=O)c(N3CCOCC3)n2)c1 [CBK076465]	114.813%
Cc1ncsc1CCOc1nccnc1N1CCCC1 [CBK115752]	93.7467%
CC(NC(=O)/C(=C\c1ccc(Cl)cc1)NC(=O)c1ccco1)C(=O)O (stereo not drawn) [CBK263617]	116.949%
O=C(CSc1ncccn1)Nc1sc2c(c1C(=O)Nc1ccccc1)CCCC2 [CBK265939]	100%
O=C1CC(C(=O)N2CCN(C(=O)c3ccco3)CC2)c2ccccc21 (stereo not drawn) [CBK144464]	103.459%
Nc1nnc(CSCc2ccc(Cl)cc2Cl)s1 [CBK263471]	103.776%
Cc1ccn2c(C(=O)N(C)CCc3noc(C(C)C)n3)nnc2n1 [CBK306670]	139.564%
Cn1c(=O)n(CC(=O)NC23CC4CC(CC(C4)C2)C3)c2cccnc21 [CBK283795]	123.356%
Cc1cc(C)c(NC(=O)CSCC(=O)Nc2ccc3ccccc3c2)c(C)c1 [CBK264856]	119.927%

Compound	% of control remaining
CC(=O)Nc1ccc(S(=O)(=O)NC2(C(F)(F)F)NC(=O)N(C3CCCC3)C2=O)cc1 (stereo not drawn) [CBK268100]	79.1297%
CCOC(=O)c1cc(C(N)=S)c(C)nc1C(F)(F)F [CBK028734]	142.817%
Cc1nc(NCCCn2ccnc2)c2ccccc2n1 [CBK051987]	100%
CCC(=O)c1cc(F)c(N2CCN(C(=O)c3cccs3)CC2)cc1C [CBK033892]	125.618%
CCN(CC)C(=O)C1CCCN(C(=O)NCCc2c[nH]cn2)C1 (stereo not drawn) [CBK156124]	106.941%
O=C(NCc1ccc2c(c1)OCO2)c1cnc(-c2ccc(Cl)cc2)c(-c2ccco2)c1 [CBK037547]	145.608%
O=S(=O)(CCOc1ccccc1)N(CCOc1ccccc1)C1CCCCC1 [CBK022003]	113.383%
COc1ccc(-c2c(-c3ccc(F)cc3)[nH]c3[nH]c(=O)[nH]c(=O)c23)cc1 [CBK288232]	97.6758%
Cc1ccc(-c2nc3ncccc3o2)cc1NC(=S)NC(=O)c1ccc(-c2cccc([N+](=O)[O-])c2)o1 [CBK268294]	103.033%
COc1ccc(Oc2cncc(OC3CCN(CCCn4c(=O)[nH]c5ccccc54)C3)n2)cc1OC (stereo not drawn) [CBK084406]	121.73%
COc1ccc(COC(=O)C2CC(=O)N(Cc3ccc(C)cc3)C2)cc1 (stereo not drawn) [CBK296624]	163.805%
CC(C)c1cc(C(=O)N2CCNC(c3ccccc3)C2)nc2ncnn12 (stereo not drawn) [CBK306533]	96.9602%
CC1CCN(S(=O)(=O)c2cc(S(=O)(=O)N3CCC(C)CC3)c3cccc4c3c2NC4=O)CC1 [CBK263716]	102.514%
COc1ccc(C(=O)Nc2c(Cl)ccc3nsnc23)cc1 [CBK270252]	131.21%
COc1ccccc1NC(=O)C(=O)NCc1cccnc1 [CBK287724]	123.755%
CC(=O)c1ccc(NC(=O)CSc2nnc(-c3ccncc3)s2)cc1 [CBK269183]	134.704%
COc1ccccc1CC(=O)NNC(=O)c1ccco1 [CBK262956]	100%
CN(Cc1cnn(C)c1)C(=O)COCc1nc2cc(F)ccc2[nH]1 [CBK306687]	93.7067%
Cn1cc(NC(=O)c2ccc(CN3CCCC3=O)cc2)cn1 [CBK306322]	136.761%
CC(C)(C)OC(=O)N1CCN(Cc2ccc(N)c3ccccc23)CC1 [CBK084530]	105.399%
Cc1ccc(CSc2cnc(C(C)(C)C)nc2)cc1 [CBK019832]	103.702%
O=C(NCCSCc1c(F)cccc1Cl)Nc1cccc(Cl)c1 [CBK268574]	98.2275%
O=C(Nc1cc(Cl)ccc1O)c1ccc(C(=O)Nc2cc(Cl)ccc2O)cc1 [CBK266784]	109.78%
COc1cnc(C(=O)NCCc2ccc(S(=O)(=O)NC(=O)NC3CCCCC3)cc2)cn1 [CBK011761]	125.829%
CC1(C)NC(=O)N(CC(O)CN(c2cc(Cl)ccc2Cl)S(=O)(=O)c2ccccc2)C1=O (stereo not drawn) [CBK033672]	130.051%
Cn1cnc2cc(NC(=O)NCCN3CCCC(CO)C3)ccc21 (stereo not drawn) [CBK307582]	119.644%

Source: PMC12040169 (PLOS Biology, 2025)
